Source: the M2OR odorant receptor database
Substitutions are numbered along the chain they refer to. The entries are a selection whose mix differs from that of the whole data set. The calls were merged from several studies; some rest on single wells. This is one part of the list.

Chains of the proteins cited; added tags and fusions are not shown. A line that says so, or that is headed by a name, gives the form on record, which may keep a tag or linker.
OR5H1, as listed by the source: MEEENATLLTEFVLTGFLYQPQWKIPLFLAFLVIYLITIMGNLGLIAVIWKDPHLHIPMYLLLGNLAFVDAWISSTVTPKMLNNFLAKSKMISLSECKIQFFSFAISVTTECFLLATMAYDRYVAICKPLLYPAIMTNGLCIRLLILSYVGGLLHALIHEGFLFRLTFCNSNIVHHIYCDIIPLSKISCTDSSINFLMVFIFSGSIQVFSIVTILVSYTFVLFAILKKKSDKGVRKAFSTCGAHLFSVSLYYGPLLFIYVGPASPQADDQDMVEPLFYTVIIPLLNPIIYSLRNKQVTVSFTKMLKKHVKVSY

Tests used:
Settings in all cases: stereoisomer not certain
[1] = system: T1, OR5DD
T1 sequence (whole entry): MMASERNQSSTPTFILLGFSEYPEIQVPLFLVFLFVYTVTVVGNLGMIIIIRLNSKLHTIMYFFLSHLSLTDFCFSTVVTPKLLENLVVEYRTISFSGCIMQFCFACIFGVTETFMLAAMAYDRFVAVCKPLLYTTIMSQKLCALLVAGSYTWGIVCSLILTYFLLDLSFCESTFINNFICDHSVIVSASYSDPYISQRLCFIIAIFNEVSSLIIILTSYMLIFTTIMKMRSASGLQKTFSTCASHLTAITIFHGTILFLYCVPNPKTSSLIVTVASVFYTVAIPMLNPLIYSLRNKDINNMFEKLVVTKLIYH
Summary of the method: (§1)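 Whether a receptor–molecule pair is responsive (active) rests on the original authors' judgment that its measured signal was statistically different from baseline. Pairs without that judgment are non-responsive (inactive). Sources used varied assay methods, commonly transient luciferase assays in mammalian cell lines.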

[2] = system: T2, OR5DE
T2 sequence (whole entry): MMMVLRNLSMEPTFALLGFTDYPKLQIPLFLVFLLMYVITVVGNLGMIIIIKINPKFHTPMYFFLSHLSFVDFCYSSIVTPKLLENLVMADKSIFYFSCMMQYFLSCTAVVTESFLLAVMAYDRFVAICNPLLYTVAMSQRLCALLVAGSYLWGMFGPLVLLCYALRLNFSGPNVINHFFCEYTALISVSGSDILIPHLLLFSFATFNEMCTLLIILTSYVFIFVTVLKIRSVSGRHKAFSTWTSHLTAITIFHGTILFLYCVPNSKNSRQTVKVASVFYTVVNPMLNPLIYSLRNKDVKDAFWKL
Summary of the method: as §1

[3] = system: T3, OR5DG
T3 sequence (whole entry): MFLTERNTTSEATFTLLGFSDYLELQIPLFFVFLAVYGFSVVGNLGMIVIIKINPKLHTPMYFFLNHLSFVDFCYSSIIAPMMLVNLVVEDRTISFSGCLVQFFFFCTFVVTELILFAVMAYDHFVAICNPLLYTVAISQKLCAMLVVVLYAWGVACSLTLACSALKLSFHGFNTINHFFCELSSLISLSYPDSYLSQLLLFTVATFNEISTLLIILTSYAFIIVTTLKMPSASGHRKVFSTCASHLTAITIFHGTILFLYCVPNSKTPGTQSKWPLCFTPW
Summary of the method: as §1

[4] = system: T4, OR5DI
T4 sequence (whole entry): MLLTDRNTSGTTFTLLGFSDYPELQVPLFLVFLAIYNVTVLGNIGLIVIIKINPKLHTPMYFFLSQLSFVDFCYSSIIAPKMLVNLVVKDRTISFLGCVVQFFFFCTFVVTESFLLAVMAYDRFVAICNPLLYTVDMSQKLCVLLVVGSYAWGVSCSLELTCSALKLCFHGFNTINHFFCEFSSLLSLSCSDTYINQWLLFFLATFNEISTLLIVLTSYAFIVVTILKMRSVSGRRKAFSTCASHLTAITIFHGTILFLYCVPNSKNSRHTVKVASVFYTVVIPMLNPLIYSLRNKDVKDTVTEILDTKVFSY
Summary of the method: as §1

[5] = system: T5, OR5F1
T5 sequence (whole entry): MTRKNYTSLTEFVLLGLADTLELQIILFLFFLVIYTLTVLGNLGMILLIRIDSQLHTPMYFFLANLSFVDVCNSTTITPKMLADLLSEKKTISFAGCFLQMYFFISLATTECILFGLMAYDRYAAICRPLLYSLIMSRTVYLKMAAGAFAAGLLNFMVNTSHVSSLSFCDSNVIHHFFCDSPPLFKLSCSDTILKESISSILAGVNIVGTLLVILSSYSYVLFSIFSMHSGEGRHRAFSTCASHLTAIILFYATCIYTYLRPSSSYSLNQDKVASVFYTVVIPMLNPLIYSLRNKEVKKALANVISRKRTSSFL
Summary of the method: as §1

[6] = biological target: T6, OR5H1 (Homo sapiens) (UniProt A6NKK0)
T6 sequence (whole entry): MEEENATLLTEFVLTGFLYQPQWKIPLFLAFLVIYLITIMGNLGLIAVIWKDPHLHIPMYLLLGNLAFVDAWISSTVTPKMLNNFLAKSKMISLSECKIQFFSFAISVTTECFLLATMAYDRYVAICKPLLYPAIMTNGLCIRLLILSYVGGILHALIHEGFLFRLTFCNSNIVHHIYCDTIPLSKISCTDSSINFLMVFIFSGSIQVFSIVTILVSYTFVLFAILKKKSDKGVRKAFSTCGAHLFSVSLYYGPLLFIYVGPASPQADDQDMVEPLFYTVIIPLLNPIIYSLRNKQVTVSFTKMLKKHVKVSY
Summary of the method: as §1

[7] = system: T7, OR5H1
T7 sequence (whole entry): T6 sequence (whole entry) with I153L, T181I
Summary of the method: as §1

[8] = system: T8, OR5H2
T8 sequence (whole entry): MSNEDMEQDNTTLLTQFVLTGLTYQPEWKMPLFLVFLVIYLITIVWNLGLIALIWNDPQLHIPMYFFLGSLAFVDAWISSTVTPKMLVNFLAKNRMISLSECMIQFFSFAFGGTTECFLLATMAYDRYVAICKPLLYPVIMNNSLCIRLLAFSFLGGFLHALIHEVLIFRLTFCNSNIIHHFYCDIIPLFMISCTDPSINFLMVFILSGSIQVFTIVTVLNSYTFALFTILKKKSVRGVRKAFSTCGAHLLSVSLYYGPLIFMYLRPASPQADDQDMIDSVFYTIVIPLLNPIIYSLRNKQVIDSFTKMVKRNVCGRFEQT
Summary of the method: as §1

[9] = system: T9, OR5H2; remark: listed apart in the source
T9 sequence (whole entry): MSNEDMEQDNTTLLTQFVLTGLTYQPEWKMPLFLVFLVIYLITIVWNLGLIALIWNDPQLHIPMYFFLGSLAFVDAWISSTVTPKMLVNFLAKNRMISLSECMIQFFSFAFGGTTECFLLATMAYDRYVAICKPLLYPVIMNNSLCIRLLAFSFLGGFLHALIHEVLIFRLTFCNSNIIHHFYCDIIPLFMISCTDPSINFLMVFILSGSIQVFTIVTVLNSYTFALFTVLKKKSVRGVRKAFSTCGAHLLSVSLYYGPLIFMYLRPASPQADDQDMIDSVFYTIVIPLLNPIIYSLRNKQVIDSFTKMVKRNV
Summary of the method: as §1

[10] = system: T10, OR5H6
T10 sequence (whole entry): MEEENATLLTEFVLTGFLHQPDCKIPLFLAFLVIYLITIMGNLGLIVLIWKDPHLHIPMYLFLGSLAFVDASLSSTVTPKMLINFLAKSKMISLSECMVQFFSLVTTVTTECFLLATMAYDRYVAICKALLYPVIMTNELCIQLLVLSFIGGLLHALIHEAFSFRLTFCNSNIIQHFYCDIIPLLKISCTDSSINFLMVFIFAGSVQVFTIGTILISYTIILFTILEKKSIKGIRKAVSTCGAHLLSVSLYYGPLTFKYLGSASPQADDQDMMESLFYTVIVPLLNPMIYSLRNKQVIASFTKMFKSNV
Summary of the method: as §1

Measured: odorant receptor agonist call;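 note: active if original authors judged signal statistically different from baseline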

CCCCOC(C)=O
inactive: all assays above
